In all, about 360,000 compounds went through this assay and about 10,000 (2.8%) were called active. Inconclusive results, whose numbers are uncertain, are shown with a selection of clear calls. Calls come from the whole dose curve; as a rule, active = well fitted inhibition curve with a large enough effect; inconclusive = small, poorly fitted or top-dose-only effect; inactive = flat fitted curve, though single readings scatter. Potencies of inconclusive entries are doubtful fits and often do not repeat.
What follows are compounds tested against Serine/threonine-protein kinase PLK1 (Homo sapiens) (UniProt P53350) (assay: qHTS for Inhibitors of PLK1-PDB (polo-like kinase 1 - polo-box domain): Primary Screen). Conditions: Plk1 PBD binding of FITC phosphopeptide, fluorescence polarization.
% is set by controls: 0 for no effect and ±100 for the full control effect; potency is the fitted concentration of half-maximal effect.
Note: nearly all actives have a fitted effect of over 65% in size.
Throughout, for max response, negative = inhibition: series mostly up to about 57 µM.

Protein sequences, listed by entry. Tags and fused reporters are not part of them.
UniProt P53350, whole entry, looked up: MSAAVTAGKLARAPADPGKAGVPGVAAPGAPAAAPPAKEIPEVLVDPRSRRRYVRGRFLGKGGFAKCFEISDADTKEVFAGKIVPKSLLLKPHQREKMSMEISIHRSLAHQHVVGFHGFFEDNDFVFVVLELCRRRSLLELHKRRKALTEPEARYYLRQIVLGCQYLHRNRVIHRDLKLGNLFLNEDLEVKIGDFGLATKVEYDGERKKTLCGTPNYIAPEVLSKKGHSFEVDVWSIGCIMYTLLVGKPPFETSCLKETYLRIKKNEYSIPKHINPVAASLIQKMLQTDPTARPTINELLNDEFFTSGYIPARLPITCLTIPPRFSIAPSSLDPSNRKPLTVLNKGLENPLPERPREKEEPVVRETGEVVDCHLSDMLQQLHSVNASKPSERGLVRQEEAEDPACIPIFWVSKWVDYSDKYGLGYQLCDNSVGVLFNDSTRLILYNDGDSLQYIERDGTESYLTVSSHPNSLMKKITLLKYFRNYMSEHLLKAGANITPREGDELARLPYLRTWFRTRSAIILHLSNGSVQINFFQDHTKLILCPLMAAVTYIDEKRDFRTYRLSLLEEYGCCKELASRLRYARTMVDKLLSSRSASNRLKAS

Row | SMILES | Potency | max response, negative = inhibition
1 | CCOC(=O)Cc1c(C)nc2c(C#N)c(C)nn2c1C | active: 18.9 µM | –
2 | O=C(O)CSc1nc2ccc(Cl)cc2[nH]1 | – | inconclusive: -33.1% [inhibitor]
3 | Cc1ccc(S(=O)(=O)NNC(=O)C2CC=CCC2C(=O)O)cc1 (centres undefined) | inconclusive: 37.7 µM [inhibitor, single point] | –
4 | COc1ccc(C(c2oc(CO)cc(=O)c2O)c2oc(CO)cc(=O)c2O)cc1OC | – | inactive: 3.89%
5 | O=C(c1ccccn1)N1N=C2/C(=C/c3ccccc3)CCCC2C1c1ccccc1 (centres undefined) | inconclusive: 29.9 µM [inhibitor, single point] | –
6 | COc1cc(/C=C/C(=O)N(Cc2ccccc2)c2ccccn2)cc(OC)c1OC | inconclusive: 33.6 µM [inhibitor, partial curve] | –
7 | Cc1ccc(C(=O)OCC(=O)Nc2sc3c(c2C#N)CCCC3)cc1NC(=O)c1ccco1 | inconclusive: 28.2 µM [inhibitor, partial curve] | –
8 | Cc1ccc(-c2n[nH]c3c2C(c2ccccc2)N(c2ccc(C(=O)O)cc2)C3=O)cc1 (centres undefined) | inconclusive: 84.4 µM [inhibitor, partial curve] | –
9 | COc1cc(CN2CCNC(=O)C2CC(=O)N(C)CCN2CCOCC2)cc(OC)c1 (centres undefined) | inconclusive: 2.99 µM [inhibitor, full curve, poor fit] | –
10 | COc1ccc(C2=NN(c3ccccc3)C(=O)/C2=C\c2ccc(O)c(OC)c2)cc1 | inconclusive: 26.7 µM [inhibitor, single point] | –
11 | O=C(Cn1cnc2sc3c(c2c1=O)CCCC3)NCC(=O)Nc1c(F)cc(F)cc1Br | active: 29.9 µM | –
12 | N#CC1=C(N)NC(SCc2ccccc2)=C(C#N)C12CCCCC2 | inconclusive: 37.7 µM [inhibitor, single point] | –
13 | O=c1oc2ccc(NS(=O)(=O)c3cccc4cccnc34)cc2s1 | inconclusive: 37.7 µM [inhibitor, partial curve, poor fit] | –
14 | COC(=O)[C@@]1(Cc2ccc(OC)cc2)[C@H]2c3cc(C(=O)N4CCCC4)n(CCN4CCOCC4)c3C[C@H]2CN1C(=O)c1ccccc1 | – | inactive: -7.1%
15 | COc1ccc(NS(=O)(=O)NC(=O)c2c(C)n(C)c3ccccc23)cc1 | – | inactive: -6.52%
16 | Cc1ccc(NC(=O)CN2C(=S)NC(C)(C)CC2C)cc1Cl (centres undefined) | inconclusive: 18.9 µM [inhibitor, partial curve] | –
17 | N#CC(C#N)=Cc1cc2ccccc2nc1N1CCCCC1 | inconclusive: 42.3 µM [inhibitor, partial curve, poor fit] | –
18 | O=C(CCC(=O)N1CCN(S(=O)(=O)c2ccc(Cl)cc2)CC1)NCc1ccccc1 | inconclusive: 37.7 µM [inhibitor, single point] | –
19 | Cc1nn(CCC(=O)NNC(=S)Nc2cccc(Cl)c2)c(C)c1[N+](=O)[O-] | inconclusive: 23.8 µM [inhibitor, partial curve] | –
20 | CCS(=O)(=O)N1CCN(Cc2ccc([N+](=O)[O-])cc2)CC1 | – | inactive: 2.19%
21 | CCOC(=O)c1sc(NC(=O)CSc2nnc(Cc3ccccc3)o2)c(C#N)c1C | active: 1.68 µM | –
22 | CN1C(=O)NC2(O)C(=O)c3ccccc3C12O (centres undefined) | active: 2.67 µM | –

Some values from the list.
Value of Cc1ccc(NC(=O)CN2C(=S)NC(C)(C)CC2C)cc1Cl (centres undefined) under Potency: inconclusive: 18.9 µM [inhibitor, partial curve]
Value of COc1cc(/C=C/C(=O)N(Cc2ccccc2)c2ccccn2)cc(OC)c1OC under Potency: inconclusive: 33.6 µM [inhibitor, partial curve]

Continuation:

Row | SMILES | Potency | max response, negative = inhibition
23 | CC(=O)Nc1ccc2nc(SCC(=O)N3CCOCC3)sc2c1 | inconclusive: 21.2 µM [inhibitor, partial curve] | –
24 | O=C(CCS(=O)(=O)c1cccc2nsnc12)N1CC(=O)N(CCc2ccccc2)C(=O)C1 | inconclusive: 29.9 µM [inhibitor, single point] | –
25 | O=S1(=O)N=C(Nc2nc3c(s2)CCCC3)c2ccccc21 | inconclusive: 23.8 µM [inhibitor, partial curve] | –
26 | CCc1nn2c(=O)cc(COc3ccc(/C=C4\C(=N)N5N=C(C)SC5=NC4=O)cc3)nc2s1 | inconclusive: 26.7 µM [inhibitor, single point] | –
27 | CCCOc1cccc(C2/C(=C(/O)c3ccc(F)cc3)C(=O)C(=O)N2CCN(C)C)c1 (centres undefined) | inconclusive: 26.7 µM [inhibitor, partial curve] | –
28 | Clc1c(Cl)c(Cl)c2n[nH]nc2c1Cl | inconclusive: 26.7 µM [inhibitor, single point] | –
29 | O=C(CSc1nnc(-c2ccc(Br)cc2)n1CCc1ccccc1)NC1CCS(=O)(=O)C1 (centres undefined) | – | inactive: -13.6%
30 | CN(Cc1cccs1)C(=O)COc1cccc2c1OC(C)(C)C2 | – | inactive: 9.08%
31 | CC1CCCCC1NC(=O)CSc1ccsc1[N+](=O)[O-] (centres undefined) | – | inactive: -6.15%
32 | CC(=O)Cn1c(N2CCC(Cc3ccccc3)CC2)nc2c1c(=O)[nH]c(=O)n2C | – | inactive: -7.42%
33 | CC(C)C(C(=O)NC1CCCCC1)N(CC1CCCO1)C(=O)CNS(=O)(=O)c1ccc(F)cc1 (centres undefined) | – | inconclusive: -34.9% [inhibitor]
34 | COc1ccc(Cl)cc1NC(=O)CN(C1CCCCC1)S(C)(=O)=O | active: 29.9 µM | –
35 | CN1CCc2c(sc(N)c2C(N)=O)C1 | inconclusive: 29.9 µM [inhibitor, single point] | –
36 | CCOCCc1nnc(NC(=O)CSc2ccccc2)s1 | inconclusive: 0.67 µM [inhibitor, full curve, poor fit] | –
37 | Cc1ccc(Cn2c(S(=O)(=O)O)nc3ccccc32)cc1 | active: 23.8 µM | –
38 | O=C(O)c1[nH]c2ccc([N+](=O)[O-])cc2c1-c1ccccc1 | inconclusive: 33.6 µM [inhibitor, single point] | –
39 | COc1ccc(-c2nnc(SCC(=O)NNC(=O)Cc3ccccc3)n2C)cc1OC | active: 26.7 µM | –
40 | CCCC(c1nnnn1CCOC)N1CCN(c2nc3ccccc3s2)CC1 (centres undefined) | active: 5.32 µM | –
41 | COc1ccc(NC(=O)C2Cc3ccccc3CN2C(=O)c2ccccc2)cn1 (centres undefined) | inconclusive: 29.9 µM [inhibitor, single point] | –
42 | C/C=C/C=C/C(=O)[C@@H]1[C@@H]([C@]2(C)OC(=O)C(C)=C2O)[C@H]2/C(=C(O)/C=C/C=C/C)C(=O)[C@]1(C)C(=O)C2(C)O (some centres undefined) | inconclusive: 23.8 µM [inhibitor, partial curve] | –
43 | C#CCOCCOCCOCCNc1nc(N2CCN(C(=O)[C@H](CCCCN)n3cc([C@@H](N)C(C)CC)nn3)CC2)nc(N2CCN(C(=O)[C@H](Cc3cc4ccccc4[nH]3)n3cc([C@@H](N)C(C)CC)nn3)CC2)n1 (some centres undefined) | – | inactive: -2.26%
44 | COc1ccccc1CNS(=O)(=O)c1ccc(-n2cnnn2)c(OC)c1 | – | inactive: -7.38%

Row | SMILES | Potency | max response, negative = inhibition
45 | CC(COc1cccc2ccccc12)CN1CCN(C)CC1 (centres undefined) | – | inactive: -15.8%
46 | O=C(COC(=O)c1cccc([N+](=O)[O-])c1)c1ccc(OCc2ccccc2)cc1 | inconclusive: 21.2 µM [inhibitor, partial curve] | –
47 | CC1C=CC=CC=CC=CC=CC=CC=CC(OC2OC(C)C(O)C(N)C2O)CC2OC(O)(CC(O)CC(O)C(O)CCC(O)CC(O)CC(=O)OC(C)C(C)C1O)CC(O)C2C(=O)O (centres undefined) | inconclusive: 18.9 µM [inhibitor, partial curve] | –
48 | Cc1ccc(C)c(C(=O)CSc2n[nH]c(C)n2)c1 | inconclusive: 29.9 µM [inhibitor, partial curve] | –
49 | O=c1c2c(nc3c(-c4cccc(Br)c4)c[nH]n13)CCCC2 | inconclusive: 26.7 µM [inhibitor, single point] | –
50 | COc1cc(C(CC(=O)N2CCCC2)c2c(OC)cc(OC)c3ccc(=O)oc23)cc(OC)c1OC (centres undefined) | – | inactive: -15.2%
51 | Cc1ccc(Sc2cc(C(=O)NCCN(C)C)c3ccccc3n2)cc1 | – | inactive: -0.933%
52 | COc1ccc(-c2cc(NC(C)=O)c3ncc(-c4cccc(C(C)=O)c4)n3c2)cc1OC | inconclusive: 26.7 µM [inhibitor, partial curve] | –
53 | COC(=O)c1c(-c2ccccc2)csc1NC(=O)C1CC=CCC1C(=O)O (centres undefined) | – | inactive: -1.98%
54 | COc1ccc(-n2ccnc(SCC(=O)NC3CCCC3)c2=O)cc1OC | inconclusive: 37.7 µM [inhibitor, partial curve, poor fit] | –
55 | Cc1ccc(CNC(=O)C2CC(c3cccc([N+](=O)[O-])c3)=NO2)o1 (centres undefined) | – | inactive: -10.2%
56 | CCOc1cc(C(=S)N2CCOCC2)ccc1OS(=O)(=O)c1ccc(C)cc1 | inconclusive: 23.8 µM [inhibitor, partial curve] | –
57 | Cc1ccc(C)c(S(=O)(=O)Nc2ccccc2C(=O)Nc2ccccc2N2CCOCC2)c1 | inconclusive: 33.6 µM [inhibitor, partial curve, poor fit] | –
58 | O=C(O)CC1S/C(=N/N=C/c2ccc([N+](=O)[O-])cc2)N(c2ccc(O)cc2)C1=O (centres undefined) | inconclusive: 21.2 µM [inhibitor, single point] | –
59 | CN(c1ccc(Cl)cc1)S(=O)(=O)c1nnc(NC(=O)c2ccco2)s1 | inconclusive: 21.2 µM [inhibitor, partial curve] | –
60 | Cc1nn(-c2ccccc2)c2sc(C(=O)N(CC(=O)NC3CCCC3)Cc3ccco3)cc12 | – | inconclusive: -30.8% [inhibitor]
61 | COc1ccc(N2CCN(C(=O)C(=O)c3cn(CC(=O)N4CCCC4)c4ccccc34)CC2)cc1 | – | inactive: -4.73%
62 | COC(=O)C1=CN(C(C)c2ccccc2)C=C(C(=O)OC)C1c1cc(OC)c(OC)c(OC)c1 (centres undefined) | inconclusive: 33.6 µM [inhibitor, partial curve] | –
63 | O=c1[nH]c2ccc(NC(=S)Nc3ccccc3)cc2[nH]1 | inconclusive: 37.7 µM [inhibitor, single point] | –
64 | O=[N+]([O-])c1ccccc1/C=C/C=N/n1c(-c2ccc(Cl)cc2)n[nH]c1=S | inconclusive: 23.8 µM [inhibitor, partial curve] | –

Among those listed so far, eight contain a thiophene ring, fused or not:
Row | SMILES | Potency | max response, negative = inhibition
7 | Cc1ccc(C(=O)OCC(=O)Nc2sc3c(c2C#N)CCCC3)cc1NC(=O)c1ccco1 | inconclusive: 28.2 µM [inhibitor, partial curve] | –
11 | O=C(Cn1cnc2sc3c(c2c1=O)CCCC3)NCC(=O)Nc1c(F)cc(F)cc1Br | active: 29.9 µM | –
21 | CCOC(=O)c1sc(NC(=O)CSc2nnc(Cc3ccccc3)o2)c(C#N)c1C | active: 1.68 µM | –
30 | CN(Cc1cccs1)C(=O)COc1cccc2c1OC(C)(C)C2 | – | inactive: 9.08%
31 | CC1CCCCC1NC(=O)CSc1ccsc1[N+](=O)[O-] (centres undefined) | – | inactive: -6.15%
35 | CN1CCc2c(sc(N)c2C(N)=O)C1 | inconclusive: 29.9 µM [inhibitor, single point] | –
53 | COC(=O)c1c(-c2ccccc2)csc1NC(=O)C1CC=CCC1C(=O)O (centres undefined) | – | inactive: -1.98%
60 | Cc1nn(-c2ccccc2)c2sc(C(=O)N(CC(=O)NC3CCCC3)Cc3ccco3)cc12 | – | inconclusive: -30.8% [inhibitor]

— PubChem BioAssay AID720504 (National Center for Advancing Translational Sciences (NCATS), 2013)
